Data as given in patent US5883287A, “Vinyl sulfide compounds and a process for their preparation” (Lumigen, Inc., priority 1997, dated 1999).

Columns and labels:
[1] = Fluoride induced chemiluminescence (TBAF in DMSO); type: physicochemical; conditions: for color of chemiluminescence emission: aliquot of reaction solution reacted with 0.1M TBAF in DMSO; for chemiluminescence produced by fluoride triggering: sample of dioxetane, excess TBAF in DMSO (or DMSO/TBAF); for chemiluminescence on addition to TBAF: addition of isolated dioxetane to 0.1M TBAF in DMSO
[2] = Light emission on heating; type: physicochemical; conditions: heated, TLC plate or sample

Structure (SMILES) | color of chemiluminescence emission [1] | chemiluminescence produced by fluoride triggering [1] | light emission on heating [2] | chemiluminescence on addition to TBAF [1]
CCSC1(c2cccc(O)c2)OOC12C1CC3CC(C1)CC2C3 (stereo not shown) [Dioxetane 1, 4-Ethylthio-4-(3-hydroxyphenyl)spiro[1,2-dioxetane-3,2'-tricyclo[3.3.1.1^3,7]decane]] | yellow emission | yellow chemiluminescence | – | –
Oc1cccc(C2(Sc3ccc(F)cc3)OOC23C2CC4CC(C2)CC3C4)c1 (stereo not shown) [Dioxetane 3, 4-(p-Fluorophenylthio)-4-(3-hydroxyphenyl)spiro[1,2-dioxetane-3,2'-tricyclo[3.3.1.1^3,7]decane]] | – | – | emitted light when heated | –
Oc1cccc(C2(Oc3c(F)cccc3F)OOC23C2CC4CC(C2)CC3C4)c1 (stereo not shown) [Dioxetane 19, 4-(2',6'-Difluorophenoxy)-4-(3-hydroxyphenyl)spiro[1,2-dioxetane-3,2'-tricyclo[3.3.1.1^3,7]decane]] | – | – | emitted blue-green light | –
COC1(c2cccc(O[Si](C)(C)C(C)(C)C)c2)OOC12C1CC3CC(C1)CC2C3 (stereo not shown) [Dioxetane 21, 4-(3-t-Butyldimethylsilyloxyphenyl)-4-methoxyspiro[1,2-dioxetane-3,2'-tricyclo-[3.3.1.1^3,7]decane]] | – | – | blue chemiluminescence | blue chemiluminescence
N#CCCOC1(c2cccc(O)c2)OOC12C1CC3CC(C1)CC2C3 (stereo not shown) [Dioxetane 9, 4-(2-Cyanoethoxy)-4-(3-hydroxyphenyl)spiro[1,2-dioxetane-3,2'-tricyclo[3.3.1.1^3,7]decane]] | blue emission | – | emitted blue light | –
Oc1cccc(C2(SCC(F)(F)F)OOC23C2CC4CC(C2)CC3C4)c1 (stereo not shown) [Dioxetane 5, 4-(2,2,2-trifluoroethylthio)-4-(3-hydroxyphenyl)spiro[1,2-dioxetane-3,2'-tricyclo[3.3.1.1^3,7]decane]] | – | orange-yellow light | light emitted on heating | –
CCSC1(c2cccc(OC(=O)C(C)(C)C)c2)OOC12C1CC3CC(C1)CC2C3 (stereo not shown) [Dioxetane 2, 4-Ethylthio-4-(3-pivaloyloxyphenyl)spiro[1,2-dioxetane-3,2'-tricyclo-[3.3.1.1^3,7]decane]] | – | yellow chemiluminescence | emitted light when heated | –
CC(C)OC1(c2cccc(O)c2)OOC12C1CC3CC(C1)CC2C3 (stereo not shown) [Dioxetane 7, 4-Isopropoxy-4-(3-hydroxyphenyl)spiro[1,2-dioxetane-3,2'-tricyclo[3.3.1.1^3,7]decane]] | blue emission | – | emitted blue light | –
CC(C)(C)C(=O)Oc1cccc(C2(Sc3ccc(F)cc3)OOC23C2CC4CC(C2)CC3C4)c1 (stereo not shown) [Dioxetane 4, 4-(p-Fluorophenylthio)-4-(3-pivaloyloxyphenyl)spiro[1,2-dioxetane-3,2'tricyclo[3.3.1.1^3,7]decane]] | yellow emission | red chemiluminescence | emitted light when a sample was heated | –
OCCOC1(c2cccc(O)c2)OOC12C1CC3CC(C1)CC2C3 (stereo not shown) [Dioxetane 10, 4-(2-Hydroxyethoxy)-4-(3-hydroxyphenyl)spiro[1,2-dioxetane-3,2'-tricyclo[3.3.1.1^3,7]decane]] | blue emission | – | emitted blue light | –
COC1(c2cccc(OC(=O)C(C)(C)C)c2)OOC12C1CC3CC(C1)CC2C3 (stereo not shown) [Dioxetane 20, 4-Methoxy-4-(3-pivaloyloxyphenyl)spiro[1,2-dioxetane-3,2'-tricyclo[3.3.1.1^3,7]decane]] | blue emission | – | emitted blue light | –
Oc1cccc(C2(OCC(Cl)(Cl)Cl)OOC23C2CC4CC(C2)CC3C4)c1 (stereo not shown) [Dioxetane 15, 4-(3-Hydroxyphenyl)-4-(2,2,2-trichloroethoxy)spiro[1,2-dibxetane-3,2'-tricyclo[3.3.1.1^3,7]decane]] | – | – | emitted blue-green light | –
COC1(c2cccc(O)c2)OOC12C1CC3CC(C1)CC2C3 (stereo not shown) [Dioxetane 6, 4-(3-Hydroxyphenyl)-4-methoxyspiro[1,2-dioxetane-3,2'-tricyclo[3.3.1.1^3,7]decane]] | blue emission | – | emitted blue light | –
Oc1cccc(C2(OCC(Cl)Cl)OOC23C2CC4CC(C2)CC3C4)c1 (stereo not shown) [Dioxetane 16, 4-(2,2-Dichloroethoxy)-4-(3-hydroxyphenyl)spiro[1,2-dioxetane-3,2'-tricyclo-[3.3.1.1^3,7]decane]] | – | – | emitted blue-green light | –
C=CCOC1(c2cccc(O)c2)OOC12C1CC3CC(C1)CC2C3 (stereo not shown) [Dioxetane 8, 4-(3-Hydroxyphenyl)-4-(2-propenyloxy)spiro[1,2-dioxetane-3,2'-tricyclo[3.3.1.1^3,7]decane]] | blue emission | – | emitted blue light | –
Oc1cccc(C2(Oc3ccccc3)OOC23C2CC4CC(C2)CC3C4)c1 (stereo not shown) [Dioxetane 11, 4-(3-Hydroxyphenyl)-4-phenoxyspiro[1,2-dioxetane-3,2'-tricyclo[3.3.1.1^3,7]decane]] | blue emission | – | emitted blue light | –
COC1(c2cccc(O[Si](c3ccccc3)(c3ccccc3)C(C)(C)C)c2)OOC12C1CC3CC(C1)CC2C3 (stereo not shown) [Dioxetane 22, 4-(3-t-Butyldiphenylsilyloxyphenyl)-4-methoxyspiro[1,2-dioxetane-3,2'-tricyclo-[3.3.1.1^3,7]decane]] | – | – | blue chemiluminescence | blue chemiluminescence
